For at least one compound, name, drawing or mass did not settle the structure.
Assays:
[1] = Phenmedipham degradation in formulations at various temperatures; format: physicochemical; details: formulation with N-Methylpyrrolidon and Morpholin (DE-PS 16 42 216, Beispiel 6/I); 70°C, 2 Stunden
Source text: Es wurde der Abbau des Phenmedipham bei verschiedenen Temperaturen verfolgt.

[2] = Stability of Phenmedipham in solvents, 24 h storage, HPLC; format: physicochemical; details: Dimethylformamid, 70°C, 24 Std.
Procedure: In der folgenden Tabelle sind die Stabilitätsuntersuchungen von Phenmedipham bei verschiedenenen Temperaturen und konstanter Zeit zusammengefaßt. Es wurden 500 mg technischer Wirkstoff in 25 ml Lösungsmittel gelöst, die Lösungen bei der entsprechend gewählten Temperatur 24 Stunden gelagert und der Restwirkstoffgehalt analytisch mit Hilfe der HPLC-Methode bestimmt.

## COC(=O)Nc1cccc(OC(=O)Nc2cccc(C)c2)c1 [Phenmedipham, 3-Methoxycarbonylaminophenyl-N-(3'-methyl-phenyl)-carbamat]
[1]
  Phenmedipham-Abbau Wirkstoffgehalt: total abgebaut
[2]
  Restwirkstoff an Phenmedipham Wirkstoffgehalt: n. n. (nicht nachweisbar)

— patent EP0044955B1, “Liquid herbicide mixtures” (BASF Aktiengesellschaft, priority 1980, dated 1982)
